Paper PMC3510509
These are yes or no findings as the source states them, for the method shown. Some entries that bind do so weakly or less than the wild type.

Chains of the proteins cited; added tags and fusions are not shown.
UniProt A0QNE0: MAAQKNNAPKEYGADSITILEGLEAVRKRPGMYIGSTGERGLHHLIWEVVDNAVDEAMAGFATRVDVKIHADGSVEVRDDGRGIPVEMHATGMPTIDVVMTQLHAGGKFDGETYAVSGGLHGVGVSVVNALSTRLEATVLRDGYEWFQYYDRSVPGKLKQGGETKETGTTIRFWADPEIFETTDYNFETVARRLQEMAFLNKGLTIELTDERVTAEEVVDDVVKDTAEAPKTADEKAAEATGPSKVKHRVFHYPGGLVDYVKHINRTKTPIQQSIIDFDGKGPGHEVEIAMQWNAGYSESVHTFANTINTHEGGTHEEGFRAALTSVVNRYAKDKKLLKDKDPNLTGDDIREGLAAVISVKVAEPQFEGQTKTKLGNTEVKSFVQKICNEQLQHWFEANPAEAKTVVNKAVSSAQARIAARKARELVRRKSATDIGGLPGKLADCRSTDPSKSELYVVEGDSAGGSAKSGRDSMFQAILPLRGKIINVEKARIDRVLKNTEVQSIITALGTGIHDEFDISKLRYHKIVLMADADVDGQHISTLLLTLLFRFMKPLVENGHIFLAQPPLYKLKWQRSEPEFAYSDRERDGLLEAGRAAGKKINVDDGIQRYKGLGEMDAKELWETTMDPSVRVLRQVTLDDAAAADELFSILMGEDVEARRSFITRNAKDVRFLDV

How the values were obtained:
[1] = molecular target: Escherichia coli DNA gyrase subunit A (GyrA) (E. coli) (UniProt P0AES4); assay: SEC; gel filtration of interspecies subunit mixtures; data not shown; both purified
[2] = molecular target: Escherichia coli DNA gyrase subunit A (GyrA) (E. coli) (UniProt P0AES4); assay: cross-linking; glutaraldehyde; gyrase subunits mixed 1:1 in supercoiling reaction buffer, on ice 30 min, then cross-linked at 37°C for 30 min; products resolved on SDS-PAGE, silver stained; both purified

“Mycobacterium smegmatis DNA gyrase subunit B (GyrB) (from UniProt A0QNE0 1-675)” was tested, and the binding [1] was “binds” and the binding [2] was “binds”.
